Measured data: PubChem BioAssay AID743121 (NCATS, 2013)
Test: 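Knock-downs that sensitise breast cancer cells to camptothecin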 (primary screen). Cells: MDA-MB-231 cells, a human breast cancer line. Reagent: single siRNA against human genes, 20 nM siRNA (0.8 pmol per well). Duration: 120 h (drug added 48 h after transfection, read 72 h later). Conditions: camptothecin 20 nM (about EC30) for 72 h; vehicle 0.1% DMSO in parallel plates. Detection: 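Cell viability by ATP luminescence (CellTiter-Glo) as % of non-targeting siRNA wells, and the log2 ratio of viability without drug over viability with camptothecin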. Direction: log2 vehicle/camptothecin viability: higher = stronger sensitisation to camptothecin; viability with camptothecin and viability without drug: higher = more viable cells. Rule for the call: 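Active genes have an RSA gene-level p-value below 0.001, computed from the ratios of their separate siRNAs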.
The whole screen tested about 26,000 reagents; this is a part drawn at random. 167 of all reagents (0.63%) count as active. 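Calls are per gene from RSA p-values that are not deposited; an individual active-marked siRNA can sensitise only weakly.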 Reagent sequences are not shown.

| target | PubChem SID | log2 vehicle/camptothecin viability | viability with camptothecin (% of control) | viability without drug (% of control) | Call |
| --- | --- | --- | --- | --- | --- |
| ANAPC2 | SID164468281 | -1.02 | 34.2 | 16.8 | inactive |
| ANAPC2 | SID164468283 | -0.72 | 29.4 | 17.9 | inactive |
| ANAPC2 | SID164468286 | -0.462 | 12.8 | 9.29 | inactive |
| ANAPC2 | SID164468287 | -1.02 | 85 | 41.8 | inactive |
| UBTD1 | SID164534840 | -0.163 | 103 | 92.3 | inactive |
| UBTD1 | SID164534841 | -0.0979 | 23.4 | 21.9 | inactive |
| UBTD1 | SID164534842 | -0.0279 | 80.3 | 78.8 | inactive |
| UBTD1 | SID164534843 | -0.548 | 73.1 | 50 | inactive |
| HAND2 | SID164403927 | -0.773 | 18.6 | 10.9 | inactive |
| HAND2 | SID164403928 | -0.175 | 109 | 96.5 | inactive |
| HAND2 | SID164403929 | -0.497 | 105 | 74.5 | inactive |
| HAND2 | SID164403930 | 0.604 | 44.2 | 67.1 | inactive |
| SERPIND1 | SID164368640 | 0.0317 | 70.9 | 72.5 | inactive |
| SERPIND1 | SID164368641 | -0.276 | 51.9 | 42.9 | inactive |
| SERPIND1 | SID164368642 | -0.643 | 53.3 | 34.1 | inactive |
| SERPIND1 | SID164368643 | -0.233 | 79.6 | 67.7 | inactive |
| CACNA1A | SID164356169 | 0.553 | 52.9 | 77.5 | inactive |
| CACNA1A | SID164356172 | -0.466 | 52.9 | 38.3 | inactive |
| CACNA1A | SID164356176 | -0.23 | 99.3 | 84.7 | inactive |
| CACNA1A | SID164356177 | 0.0491 | 82.3 | 85.1 | inactive |
| DCLK1 | SID164402345 | 0.578 | 58.5 | 87.4 | inactive |
| DCLK1 | SID164402346 | 0.0259 | 84.9 | 86.5 | inactive |
| DCLK1 | SID164402347 | -0.0713 | 85.8 | 81.6 | inactive |
| DCLK1 | SID164402348 | -0.0573 | 99.1 | 95.3 | inactive |
| MSH5 | SID164376145 | 0.187 | 70.3 | 80 | inactive |
| MSH5 | SID164376146 | -0.29 | 71.1 | 58.1 | inactive |
| MSH5 | SID164376147 | -0.489 | 47.3 | 33.7 | inactive |
| MSH5 | SID164376149 | -0.0888 | 64.8 | 60.9 | inactive |
| AKAP1 | SID164396376 | -0.0367 | 99 | 96.5 | inactive |
| AKAP1 | SID164396378 | 0.0483 | 100 | 104 | inactive |
| AKAP1 | SID164396380 | -0.349 | 106 | 83.2 | inactive |
| AKAP1 | SID164396382 | -0.00448 | 90.3 | 90.1 | inactive |
| FRAT1 | SID164408153 | -0.501 | 74 | 52.3 | inactive |
| FRAT1 | SID164408154 | -0.0757 | 59.7 | 56.7 | inactive |
| FRAT1 | SID164408155 | -0.337 | 86.3 | 68.3 | inactive |
| FRAT1 | SID164408156 | -0.419 | 74.2 | 55.5 | inactive |
| SFXN5 | SID164553609 | 0.0458 | 90.8 | 93.7 | inactive |
| SFXN5 | SID164553610 | 0.13 | 94.4 | 103 | inactive |
| SFXN5 | SID164553611 | 0.274 | 29.5 | 35.7 | inactive |
| SFXN5 | SID164553612 | 0.896 | 10.9 | 20.3 | inactive |
| TTN | SID164392902 | -0.333 | 107 | 85.1 | inactive |
| TTN | SID164392903 | -0.0882 | 102 | 95.8 | inactive |
| TTN | SID164392907 | 0.37 | 67.4 | 87.1 | inactive |
| TTN | SID164392908 | -0.054 | 76 | 73.2 | inactive |
| MDM2 | SID164375156 | 0.242 | 51.8 | 61.3 | inactive |
| MDM2 | SID164375159 | -0.145 | 56.8 | 51.3 | inactive |
| MDM2 | SID164375160 | -0.0483 | 97.4 | 94.2 | inactive |
| MDM2 | SID164375164 | -0.507 | 105 | 73.8 | inactive |
| GBA1 | SID164366135 | 0.497 | 63.2 | 89.2 | inactive |
| GBA1 | SID164366136 | -0.0547 | 93.8 | 90.3 | inactive |
| GBA1 | SID164366138 | -0.961 | 79.4 | 40.8 | inactive |
| GBA1 | SID164366141 | 0.573 | 36.8 | 54.8 | inactive |
| SERPINB1 | SID164363080 | -0.212 | 69.3 | 59.9 | inactive |
| SERPINB1 | SID164363081 | -0.578 | 118 | 78.8 | inactive |
| SERPINB1 | SID164363082 | -0.103 | 107 | 99.2 | inactive |
| SLC9A4 | SID164678243 | 0.588 | 48.6 | 73.1 | inactive |
| SLC9A4 | SID164678244 | -0.145 | 93.5 | 84.5 | inactive |
| SLC9A4 | SID164678245 | -0.12 | 100 | 92.1 | inactive |
| SLC9A4 | SID164678247 | 0.0477 | 109 | 113 | inactive |
| TRPV5 | SID164489542 | -0.257 | 54.7 | 45.8 | inactive |
| TRPV5 | SID164489543 | -0.407 | 52.4 | 39.5 | inactive |
| TRPV5 | SID164489544 | 0.0878 | 95.2 | 101 | inactive |
| TRPV5 | SID164489545 | -0.22 | 98.3 | 84.4 | inactive |
| OPRM1 | SID164378930 | -0.242 | 21.6 | 18.2 | inactive |
| OPRM1 | SID164378935 | -0.206 | 105 | 90.7 | inactive |
| OPRM1 | SID164378942 | 0.117 | 54.9 | 59.5 | inactive |
| OPRM1 | SID164378948 | 0.0802 | 67.6 | 71.5 | inactive |
| METTL5 | SID164464982 | 0.00204 | 87.3 | 87.4 | inactive |
| METTL5 | SID164464983 | 0.583 | 53.9 | 80.7 | inactive |
| METTL5 | SID164464985 | 0.309 | 69.2 | 85.7 | inactive |
| METTL5 | SID164464987 | -0.358 | 59.3 | 46.3 | inactive |

12 entries from above, reformatted:
target,PubChem SID,log2 vehicle/camptothecin viability,viability with camptothecin (% of control),viability without drug (% of control),Call
SFXN5,SID164553612,0.896,10.9,20.3,inactive
TTN,SID164392902,-0.333,107,85.1,inactive
TTN,SID164392903,-0.0882,102,95.8,inactive
TTN,SID164392907,0.37,67.4,87.1,inactive
TTN,SID164392908,-0.054,76,73.2,inactive
MDM2,SID164375156,0.242,51.8,61.3,inactive
MDM2,SID164375159,-0.145,56.8,51.3,inactive
MDM2,SID164375160,-0.0483,97.4,94.2,inactive
MDM2,SID164375164,-0.507,105,73.8,inactive
GBA1,SID164366135,0.497,63.2,89.2,inactive
GBA1,SID164366136,-0.0547,93.8,90.3,inactive
GBA1,SID164366138,-0.961,79.4,40.8,inactive
